Laboratory results taken from the supplement of paper PMC11438910.
This is one part of the list. The signal is at background level for most entries.

Experiments:
Experiment in all cases: fluorescence intensity of antibody binding to polysaccharide-coupled beads; higher = stronger binding
[1] = molecular target: pneumococcal polysaccharide Pn15B
[2] = molecular target: pneumococcal polysaccharide Pn15C
[3] = molecular target: pneumococcal polysaccharide Pn15F
[4] = molecular target: pneumococcal polysaccharide Pn16A
[5] = molecular target: pneumococcal polysaccharide Pn16F
[6] = molecular target: pneumococcal polysaccharide Pn17A
[7] = molecular target: pneumococcal polysaccharide Pn17F
[8] = molecular target: pneumococcal polysaccharide Pn18A
[9] = molecular target: pneumococcal polysaccharide Pn18B
[10] = molecular target: pneumococcal polysaccharide Pn18C
[11] = molecular target: pneumococcal polysaccharide Pn18F
[12] = molecular target: pneumococcal polysaccharide Pn19A
[13] = molecular target: pneumococcal polysaccharide Pn19B
[14] = molecular target: pneumococcal polysaccharide Pn19C
[15] = molecular target: pneumococcal polysaccharide Pn19F
[16] = molecular target: pneumococcal polysaccharide Pn2
[17] = molecular target: pneumococcal polysaccharide Pn20A
[18] = molecular target: pneumococcal polysaccharide Pn20B
[19] = molecular target: pneumococcal polysaccharide Pn21
[20] = molecular target: pneumococcal polysaccharide Pn22A
[21] = molecular target: pneumococcal polysaccharide Pn22F
[22] = molecular target: pneumococcal polysaccharide Pn23A
[23] = molecular target: pneumococcal polysaccharide Pn23B
[24] = molecular target: pneumococcal polysaccharide Pn23F
[25] = antibody concentration 2337.65 ng/mL
[26] = antibody concentration 12500 ng/mL
[27] = antibody concentration 0.1 ng/mL
[28] = antibody concentration 0.534724 ng/mL
[29] = antibody concentration 2.8593 ng/mL
[30] = antibody concentration 15.2894 ng/mL
[31] = antibody concentration 81.7561 ng/mL
[32] = antibody concentration 437.17 ng/mL

B1: 4-80.1 (protein)
chain 1: QVQLQESGPGLVKPSETLSLTCAVSGIPISTYWWSWIRQTPEKGLEWIGEIDGNGGGTNYNPSLQSRVTFSKDASKNQFSLRLNSVTAADTAVFYCARLWGNAYWGQGVLVTVSS
chain 2: DVVMTQSPLSLPINPGQPASISCRSSQSLVYSDGKTYLTWYQQKPGQPPRRLIYQVSKRDSGVPDRFSGSGAGTDFTLKISRVESEDVGIYYCLQGTHLPYTFGQGTKVEIK
- fluorescence intensity [1, 25]: 582 MFI
- fluorescence intensity [1, 26]: 816 MFI
- fluorescence intensity [2, 27]: 19.5 MFI
- fluorescence intensity [2, 28]: 18 MFI
- fluorescence intensity [2, 29]: 17.5 MFI
- fluorescence intensity [2, 30]: 18 MFI
- fluorescence intensity [2, 31]: 24 MFI
- fluorescence intensity [2, 32]: 71.5 MFI
- fluorescence intensity [2, 25]: 178 MFI
- fluorescence intensity [2, 26]: 194 MFI
- fluorescence intensity [3, 27]: 18.8 MFI
- fluorescence intensity [3, 28]: 21 MFI
- fluorescence intensity [3, 29]: 42.8 MFI
- fluorescence intensity [3, 30]: 279 MFI
- fluorescence intensity [3, 31]: 1010 MFI
- fluorescence intensity [3, 32]: 2880 MFI
- fluorescence intensity [3, 25]: 3600 MFI
- fluorescence intensity [3, 26]: 3630 MFI
- fluorescence intensity [4, 27]: 14.8 MFI
- fluorescence intensity [4, 28]: 14.5 MFI
- fluorescence intensity [4, 29]: 14.5 MFI
- fluorescence intensity [4, 30]: 15 MFI
- fluorescence intensity [4, 31]: 23 MFI
- fluorescence intensity [4, 32]: 56 MFI
- fluorescence intensity [4, 25]: 160 MFI
- fluorescence intensity [4, 26]: 301 MFI
- fluorescence intensity [5, 27]: 23 MFI
- fluorescence intensity [5, 28]: 25.5 MFI
- fluorescence intensity [5, 29]: 24 MFI
- fluorescence intensity [5, 30]: 24.8 MFI
- fluorescence intensity [5, 31]: 26.8 MFI
- fluorescence intensity [5, 32]: 59.5 MFI
- fluorescence intensity [5, 25]: 122 MFI
- fluorescence intensity [5, 26]: 206 MFI
- fluorescence intensity [6, 27]: 20 MFI
- fluorescence intensity [6, 28]: 21 MFI
- fluorescence intensity [6, 29]: 22 MFI
- fluorescence intensity [6, 30]: 27 MFI
- fluorescence intensity [6, 31]: 87 MFI
- fluorescence intensity [6, 32]: 660 MFI
- fluorescence intensity [6, 25]: 1370 MFI
- fluorescence intensity [6, 26]: 1840 MFI
- fluorescence intensity [7, 27]: 26.5 MFI
- fluorescence intensity [7, 28]: 26.5 MFI
- fluorescence intensity [7, 29]: 28 MFI
- fluorescence intensity [7, 30]: 54.5 MFI
- fluorescence intensity [7, 31]: 218 MFI
- fluorescence intensity [7, 32]: 1100 MFI
- fluorescence intensity [7, 25]: 1810 MFI
- fluorescence intensity [7, 26]: 2040 MFI
- fluorescence intensity [8, 27]: 23.5 MFI
- fluorescence intensity [8, 28]: 24.5 MFI
- fluorescence intensity [8, 29]: 23 MFI
- fluorescence intensity [8, 30]: 27 MFI
- fluorescence intensity [8, 31]: 42.2 MFI
- fluorescence intensity [8, 32]: 265 MFI
- fluorescence intensity [8, 25]: 690 MFI
- fluorescence intensity [8, 26]: 1060 MFI
- fluorescence intensity [9, 27]: 30 MFI
- fluorescence intensity [9, 28]: 30.5 MFI
- fluorescence intensity [9, 29]: 38.8 MFI
- fluorescence intensity [9, 30]: 125 MFI
- fluorescence intensity [9, 31]: 419 MFI
- fluorescence intensity [9, 32]: 1270 MFI
- fluorescence intensity [9, 25]: 1750 MFI
- fluorescence intensity [9, 26]: 1930 MFI
- fluorescence intensity [10, 27]: 20.5 MFI
- fluorescence intensity [10, 28]: 20 MFI
- fluorescence intensity [10, 29]: 18.5 MFI
- fluorescence intensity [10, 30]: 22.5 MFI
- fluorescence intensity [10, 31]: 33.5 MFI
- fluorescence intensity [10, 32]: 180 MFI
- fluorescence intensity [10, 25]: 369 MFI
- fluorescence intensity [10, 26]: 534 MFI
- fluorescence intensity [11, 27]: 23.5 MFI
- fluorescence intensity [11, 28]: 23 MFI
- fluorescence intensity [11, 29]: 23.5 MFI
- fluorescence intensity [11, 30]: 26 MFI
- fluorescence intensity [11, 31]: 47.5 MFI
- fluorescence intensity [11, 32]: 254 MFI
- fluorescence intensity [11, 25]: 607 MFI
- fluorescence intensity [11, 26]: 916 MFI
- fluorescence intensity [12, 27]: 18 MFI
- fluorescence intensity [12, 28]: 19.8 MFI
- fluorescence intensity [12, 29]: 18.5 MFI
- fluorescence intensity [12, 30]: 22.8 MFI
- fluorescence intensity [12, 31]: 56.5 MFI
- fluorescence intensity [12, 32]: 271 MFI
- fluorescence intensity [12, 25]: 517 MFI
- fluorescence intensity [12, 26]: 707 MFI
- fluorescence intensity [13, 27]: 31 MFI
- fluorescence intensity [13, 28]: 28 MFI
- fluorescence intensity [13, 29]: 30 MFI
- fluorescence intensity [13, 30]: 29.5 MFI
- fluorescence intensity [13, 31]: 34 MFI
- fluorescence intensity [13, 32]: 59.5 MFI
- fluorescence intensity [13, 25]: 118 MFI
- fluorescence intensity [13, 26]: 275 MFI
- fluorescence intensity [14, 27]: 25.5 MFI
- fluorescence intensity [14, 28]: 26.5 MFI
- fluorescence intensity [14, 29]: 25.5 MFI
- fluorescence intensity [14, 30]: 27 MFI
- fluorescence intensity [14, 31]: 31.5 MFI
- fluorescence intensity [14, 32]: 143 MFI
- fluorescence intensity [14, 25]: 528 MFI
- fluorescence intensity [14, 26]: 1100 MFI
- fluorescence intensity [15, 27]: 25.5 MFI
- fluorescence intensity [15, 28]: 28 MFI
- fluorescence intensity [15, 29]: 30.5 MFI
- fluorescence intensity [15, 30]: 65.5 MFI
- fluorescence intensity [15, 31]: 263 MFI
- fluorescence intensity [15, 32]: 912 MFI
- fluorescence intensity [15, 25]: 1460 MFI
- fluorescence intensity [15, 26]: 1760 MFI
- fluorescence intensity [16, 27]: 20.5 MFI
- fluorescence intensity [16, 28]: 20.5 MFI
- fluorescence intensity [16, 29]: 19.5 MFI
- fluorescence intensity [16, 30]: 26 MFI
- fluorescence intensity [16, 31]: 74.5 MFI
- fluorescence intensity [16, 32]: 468 MFI
- fluorescence intensity [16, 25]: 995 MFI
- fluorescence intensity [16, 26]: 1250 MFI
- fluorescence intensity [17, 27]: 23 MFI
- fluorescence intensity [17, 28]: 23.5 MFI
- fluorescence intensity [17, 29]: 22 MFI
- fluorescence intensity [17, 30]: 27 MFI
- fluorescence intensity [17, 31]: 58 MFI
- fluorescence intensity [17, 32]: 416 MFI
- fluorescence intensity [17, 25]: 960 MFI
- fluorescence intensity [17, 26]: 1340 MFI
- fluorescence intensity [18, 27]: 24 MFI
- fluorescence intensity [18, 28]: 24 MFI
- fluorescence intensity [18, 29]: 23.5 MFI
- fluorescence intensity [18, 30]: 24.5 MFI
- fluorescence intensity [18, 31]: 24.5 MFI
- fluorescence intensity [18, 32]: 30.5 MFI
- fluorescence intensity [18, 25]: 51.5 MFI
- fluorescence intensity [18, 26]: 108 MFI
- fluorescence intensity [19, 27]: 17.2 MFI
- fluorescence intensity [19, 28]: 19.8 MFI
- fluorescence intensity [19, 29]: 20 MFI
- fluorescence intensity [19, 30]: 18.8 MFI
- fluorescence intensity [19, 31]: 20.2 MFI
- fluorescence intensity [19, 32]: 21 MFI
- fluorescence intensity [19, 25]: 23.5 MFI
- fluorescence intensity [19, 26]: 36.8 MFI
- fluorescence intensity [20, 27]: 22 MFI
- fluorescence intensity [20, 28]: 21.5 MFI
- fluorescence intensity [20, 29]: 22 MFI
- fluorescence intensity [20, 30]: 30.5 MFI
- fluorescence intensity [20, 31]: 63.5 MFI
- fluorescence intensity [20, 32]: 370 MFI
- fluorescence intensity [20, 25]: 901 MFI
- fluorescence intensity [20, 26]: 1330 MFI
- fluorescence intensity [21, 27]: 31.8 MFI
- fluorescence intensity [21, 28]: 31 MFI
- fluorescence intensity [21, 29]: 28.2 MFI
- fluorescence intensity [21, 30]: 41 MFI
- fluorescence intensity [21, 31]: 136 MFI
- fluorescence intensity [21, 32]: 505 MFI
- fluorescence intensity [21, 25]: 817 MFI
- fluorescence intensity [21, 26]: 1020 MFI
- fluorescence intensity [22, 27]: 24.8 MFI
- fluorescence intensity [22, 28]: 25.2 MFI
- fluorescence intensity [22, 29]: 25.5 MFI
- fluorescence intensity [22, 30]: 30 MFI
- fluorescence intensity [22, 31]: 50 MFI
- fluorescence intensity [22, 32]: 160 MFI
- fluorescence intensity [22, 25]: 316 MFI
- fluorescence intensity [22, 26]: 443 MFI
- fluorescence intensity [23, 27]: 30.5 MFI
- fluorescence intensity [23, 28]: 30 MFI
- fluorescence intensity [23, 29]: 28.8 MFI
- fluorescence intensity [23, 30]: 31 MFI
- fluorescence intensity [23, 31]: 31.8 MFI
- fluorescence intensity [23, 32]: 49.2 MFI
- fluorescence intensity [23, 25]: 141 MFI
- fluorescence intensity [23, 26]: 307 MFI
- fluorescence intensity [24, 27]: 18.5 MFI
- fluorescence intensity [24, 28]: 17.5 MFI
